Patent US20250249092A1 (TORAY INDUSTRIES, published 2025)
Results are given in words; binding and its absence hold for the method and conditions named. Some binding calls cover weakened binding; strength is not graded here. Values belong to the binder of their own block, whether it stands above or below them.

What was measured:
[1] = target: T1, CAPRIN-1 protein (UniProt Q14444); assay: ELISA
T1 sequence (looked up): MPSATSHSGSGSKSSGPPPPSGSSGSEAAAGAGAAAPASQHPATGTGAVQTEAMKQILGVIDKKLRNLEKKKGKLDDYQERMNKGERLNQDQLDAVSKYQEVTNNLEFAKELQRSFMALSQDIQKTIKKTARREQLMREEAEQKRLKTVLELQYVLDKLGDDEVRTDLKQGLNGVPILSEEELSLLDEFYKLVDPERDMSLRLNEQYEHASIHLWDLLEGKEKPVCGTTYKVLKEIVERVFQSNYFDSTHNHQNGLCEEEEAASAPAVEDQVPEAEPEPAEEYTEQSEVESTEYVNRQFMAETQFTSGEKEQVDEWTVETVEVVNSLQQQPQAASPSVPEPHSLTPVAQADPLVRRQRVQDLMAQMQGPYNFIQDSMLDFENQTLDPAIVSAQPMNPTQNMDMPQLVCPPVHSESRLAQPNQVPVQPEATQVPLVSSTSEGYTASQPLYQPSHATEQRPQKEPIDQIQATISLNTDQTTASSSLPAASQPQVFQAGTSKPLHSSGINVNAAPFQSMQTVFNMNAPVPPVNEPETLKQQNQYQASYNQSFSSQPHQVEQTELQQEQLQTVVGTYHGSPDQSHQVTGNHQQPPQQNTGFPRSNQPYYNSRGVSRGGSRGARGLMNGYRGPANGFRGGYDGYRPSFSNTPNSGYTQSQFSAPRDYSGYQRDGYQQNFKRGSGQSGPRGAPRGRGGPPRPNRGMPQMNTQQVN

[2] = target: T2, CAPRIN-1 protein on the cell membrane surface of cancer cells (UniProt Q14444); assay: flow cytometry
T2 sequence (looked up): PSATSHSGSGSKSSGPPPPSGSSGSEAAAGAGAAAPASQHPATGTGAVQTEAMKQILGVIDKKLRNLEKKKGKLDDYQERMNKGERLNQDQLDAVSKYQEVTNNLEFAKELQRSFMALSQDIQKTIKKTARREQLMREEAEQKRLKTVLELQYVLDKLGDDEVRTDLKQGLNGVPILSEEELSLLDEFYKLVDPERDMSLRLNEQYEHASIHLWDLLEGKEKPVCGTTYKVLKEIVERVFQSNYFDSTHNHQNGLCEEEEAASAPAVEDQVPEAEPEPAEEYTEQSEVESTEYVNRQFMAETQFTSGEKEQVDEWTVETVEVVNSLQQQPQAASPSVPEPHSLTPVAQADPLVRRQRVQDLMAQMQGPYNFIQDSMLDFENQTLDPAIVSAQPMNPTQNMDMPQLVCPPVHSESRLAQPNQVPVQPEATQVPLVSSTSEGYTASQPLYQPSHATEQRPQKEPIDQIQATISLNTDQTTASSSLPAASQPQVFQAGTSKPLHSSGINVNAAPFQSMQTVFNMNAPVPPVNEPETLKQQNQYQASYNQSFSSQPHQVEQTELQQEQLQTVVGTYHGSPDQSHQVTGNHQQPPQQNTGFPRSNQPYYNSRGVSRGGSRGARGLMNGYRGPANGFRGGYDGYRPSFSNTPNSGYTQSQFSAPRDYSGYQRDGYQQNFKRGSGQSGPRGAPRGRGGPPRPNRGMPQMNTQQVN

[3] = target: T3, CAPRIN-1 on the cell membrane surface of mouse cancer cells (mouse) (UniProt Q60865); assay: 4T1 cells
T3 sequence (looked up): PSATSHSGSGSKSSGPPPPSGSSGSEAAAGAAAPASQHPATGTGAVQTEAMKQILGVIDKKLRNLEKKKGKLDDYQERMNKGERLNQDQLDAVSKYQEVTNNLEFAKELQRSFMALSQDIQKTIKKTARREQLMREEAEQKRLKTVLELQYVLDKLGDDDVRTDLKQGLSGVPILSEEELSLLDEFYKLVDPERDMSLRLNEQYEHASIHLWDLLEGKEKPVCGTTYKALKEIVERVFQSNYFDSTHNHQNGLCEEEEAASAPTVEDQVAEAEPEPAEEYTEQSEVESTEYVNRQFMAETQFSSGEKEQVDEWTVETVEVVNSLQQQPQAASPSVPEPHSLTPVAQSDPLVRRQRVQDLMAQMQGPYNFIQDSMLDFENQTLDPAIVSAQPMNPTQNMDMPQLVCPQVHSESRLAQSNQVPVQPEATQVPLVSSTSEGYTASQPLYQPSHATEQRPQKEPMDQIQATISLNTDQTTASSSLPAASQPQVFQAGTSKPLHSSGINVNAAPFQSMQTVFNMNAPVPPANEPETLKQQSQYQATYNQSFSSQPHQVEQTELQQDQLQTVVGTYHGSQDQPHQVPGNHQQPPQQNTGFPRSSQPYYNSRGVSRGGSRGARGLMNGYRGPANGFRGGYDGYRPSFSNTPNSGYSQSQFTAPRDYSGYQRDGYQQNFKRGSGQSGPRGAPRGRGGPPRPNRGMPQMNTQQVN

- binding [1]: binds
- binding [2]: binds
- binding [3]: binds
B1: Conjugate 32 (antibody, V domains shown)
VH: QSLEESGGDLVKPGASLTLTCTASGFSFSGSYYMSWVRQAPGKGLEWIAYIYIGDGVTAYANWAKGRFTISKASSTTVTLQMTSLTAADTATYFCARGNKLWGPGTLVTVSS
VL: DVVMTQTPASVEAAVGGTVTIKCQASQSISSYLAWYQQKPGQPPKRLIYDASNLDSGVPSRFKGSGSGTDFTITISDLECADAATYYCQCTAVSSATIYGNAFGGGTEVVVK

- binding [1]: binds
- binding [2]: binds
- binding [3]: binds
B2: Conjugate 36 (antibody, V domains shown)
VH: B1 VH
VL: B1 VL
